Values from PubChem BioAssay AID1508597 (Cure First, 2020).

Test: 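Knock-downs altering ovarian cancer cell survival with or without PARP inhibitor rucaparib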 (primary screen)
Cells: human ovarian carcinoma lines grown from tumours: OCI-P5x (papillary serous) and OCI-C5x (clear cell)
Reagent: siRNA pool against human genes, 1.25 pmol siRNA per well
Time to read-out: 72 h or 96 h, depending on the cell culture
Challenge: rucaparib 20 µM (about IC30) or vehicle, present until read-out
Measurement: 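ATP luminescence measured at 72 or 96 h according to the culture, then normalised and expressed as percent viability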
Direction: viability, normalised: higher = more viable cells remaining
Active means: 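a well counts as a hit if its normalised viability is under 80 percent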
Meaning of the calls: active = viability under 80%; inactive = viability 80% or more
The whole screen tested about 2,100 reagents; this is a part drawn at random. 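Calls flag viability under 80% in either arm, not effects specific to rucaparib; the reference for percent is not stated.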 A number with no mark means an inactive call. Not given: the 100% reference.

| Target gene | rucaparib or vehicle | cell line | technical replicate | viability, normalised (%) |
| --- | --- | --- | --- | --- |
| MACROH2A2 (GeneID 55506) | Rucaparib | OCI-C5x (clear cell) | 1 | 39.3 (active) |
| MACROH2A2 (GeneID 55506) | Rucaparib | OCI-C5x (clear cell) | 2 | 47.3 (active) |
| MACROH2A2 (GeneID 55506) | Rucaparib | OCI-C5x (clear cell) | 3 | 36.8 (active) |
| MACROH2A2 (GeneID 55506) | Rucaparib | OCI-P5x (serous) | 1 | 52.7 (active) |
| MACROH2A2 (GeneID 55506) | Rucaparib | OCI-P5x (serous) | 2 | 44.3 (active) |
| MACROH2A2 (GeneID 55506) | Rucaparib | OCI-P5x (serous) | 3 | 31.2 (active) |
| MACROH2A2 (GeneID 55506) | Vehicle | OCI-C5x (clear cell) | 1 | 42.2 (active) |
| MACROH2A2 (GeneID 55506) | Vehicle | OCI-C5x (clear cell) | 2 | 31 (active) |
| MACROH2A2 (GeneID 55506) | Vehicle | OCI-C5x (clear cell) | 3 | 36.5 (active) |
| MACROH2A2 (GeneID 55506) | Vehicle | OCI-P5x (serous) | 1 | 52.2 (active) |
| MACROH2A2 (GeneID 55506) | Vehicle | OCI-P5x (serous) | 2 | 66 (active) |
| MACROH2A2 (GeneID 55506) | Vehicle | OCI-P5x (serous) | 3 | 105 |
| HNF1A (GeneID 6927) | Rucaparib | OCI-C5x (clear cell) | 1 | 33.1 (active) |
| HNF1A (GeneID 6927) | Rucaparib | OCI-C5x (clear cell) | 2 | 19.2 (active) |
| HNF1A (GeneID 6927) | Rucaparib | OCI-C5x (clear cell) | 3 | 39.3 (active) |
| HNF1A (GeneID 6927) | Rucaparib | OCI-P5x (serous) | 1 | 47.1 (active) |
| HNF1A (GeneID 6927) | Rucaparib | OCI-P5x (serous) | 2 | 48.6 (active) |
| HNF1A (GeneID 6927) | Rucaparib | OCI-P5x (serous) | 3 | 51.4 (active) |
| HNF1A (GeneID 6927) | Vehicle | OCI-C5x (clear cell) | 1 | 34.3 (active) |
| HNF1A (GeneID 6927) | Vehicle | OCI-C5x (clear cell) | 2 | 40.2 (active) |
| HNF1A (GeneID 6927) | Vehicle | OCI-C5x (clear cell) | 3 | 41 (active) |
| HNF1A (GeneID 6927) | Vehicle | OCI-P5x (serous) | 1 | 66.7 (active) |
| HNF1A (GeneID 6927) | Vehicle | OCI-P5x (serous) | 2 | 81.2 |
| HNF1A (GeneID 6927) | Vehicle | OCI-P5x (serous) | 3 | 72 (active) |
| DHX34 (GeneID 9704) | Rucaparib | OCI-C5x (clear cell) | 1 | 47.1 (active) |
| DHX34 (GeneID 9704) | Rucaparib | OCI-C5x (clear cell) | 2 | 45.1 (active) |
| DHX34 (GeneID 9704) | Rucaparib | OCI-C5x (clear cell) | 3 | 42.5 (active) |
| DHX34 (GeneID 9704) | Rucaparib | OCI-P5x (serous) | 1 | 64.2 (active) |
| DHX34 (GeneID 9704) | Rucaparib | OCI-P5x (serous) | 2 | 56.5 (active) |
| DHX34 (GeneID 9704) | Rucaparib | OCI-P5x (serous) | 3 | 60.7 (active) |
| DHX34 (GeneID 9704) | Vehicle | OCI-C5x (clear cell) | 1 | 44.7 (active) |
| DHX34 (GeneID 9704) | Vehicle | OCI-C5x (clear cell) | 2 | 45.4 (active) |
| DHX34 (GeneID 9704) | Vehicle | OCI-C5x (clear cell) | 3 | 38.7 (active) |
| DHX34 (GeneID 9704) | Vehicle | OCI-P5x (serous) | 1 | 57.4 (active) |
| DHX34 (GeneID 9704) | Vehicle | OCI-P5x (serous) | 2 | 53 (active) |
| DHX34 (GeneID 9704) | Vehicle | OCI-P5x (serous) | 3 | 56.1 (active) |

4 entries already listed, arranged by “viability, normalised (%)”, high to low.
| Target gene | rucaparib or vehicle | cell line | technical replicate | viability, normalised (%) |
| --- | --- | --- | --- | --- |
| DHX34 (GeneID 9704) | Rucaparib | OCI-P5x (serous) | 1 | 64.2 (active) |
| DHX34 (GeneID 9704) | Rucaparib | OCI-P5x (serous) | 2 | 56.5 (active) |
| DHX34 (GeneID 9704) | Rucaparib | OCI-C5x (clear cell) | 2 | 45.1 (active) |
| DHX34 (GeneID 9704) | Rucaparib | OCI-C5x (clear cell) | 3 | 42.5 (active) |

Continued:
| Target gene | rucaparib or vehicle | cell line | technical replicate | viability, normalised (%) |
| --- | --- | --- | --- | --- |
| RSF1 (GeneID 51773) | Rucaparib | OCI-C5x (clear cell) | 1 | 58.7 (active) |
| RSF1 (GeneID 51773) | Rucaparib | OCI-C5x (clear cell) | 2 | 45.2 (active) |
| RSF1 (GeneID 51773) | Rucaparib | OCI-C5x (clear cell) | 3 | 50 (active) |
| RSF1 (GeneID 51773) | Rucaparib | OCI-P5x (serous) | 1 | 57.6 (active) |
| RSF1 (GeneID 51773) | Rucaparib | OCI-P5x (serous) | 2 | 68.7 (active) |
| RSF1 (GeneID 51773) | Rucaparib | OCI-P5x (serous) | 3 | 50.7 (active) |
| RSF1 (GeneID 51773) | Vehicle | OCI-C5x (clear cell) | 1 | 58.6 (active) |
| RSF1 (GeneID 51773) | Vehicle | OCI-C5x (clear cell) | 2 | 48.3 (active) |
| RSF1 (GeneID 51773) | Vehicle | OCI-C5x (clear cell) | 3 | 49.6 (active) |
| RSF1 (GeneID 51773) | Vehicle | OCI-P5x (serous) | 1 | 64.1 (active) |
| RSF1 (GeneID 51773) | Vehicle | OCI-P5x (serous) | 2 | 62.9 (active) |
| RSF1 (GeneID 51773) | Vehicle | OCI-P5x (serous) | 3 | 76.5 (active) |
| USP21 (GeneID 27005) | Rucaparib | OCI-C5x (clear cell) | 1 | 84 |
| USP21 (GeneID 27005) | Rucaparib | OCI-C5x (clear cell) | 2 | 74.5 (active) |
| USP21 (GeneID 27005) | Rucaparib | OCI-C5x (clear cell) | 3 | 52.2 (active) |
| USP21 (GeneID 27005) | Rucaparib | OCI-P5x (serous) | 1 | 100 |
| USP21 (GeneID 27005) | Rucaparib | OCI-P5x (serous) | 2 | 71.6 (active) |
| USP21 (GeneID 27005) | Rucaparib | OCI-P5x (serous) | 3 | 70.9 (active) |
| USP21 (GeneID 27005) | Vehicle | OCI-C5x (clear cell) | 1 | 65.1 (active) |
| USP21 (GeneID 27005) | Vehicle | OCI-C5x (clear cell) | 2 | 66.2 (active) |
| USP21 (GeneID 27005) | Vehicle | OCI-C5x (clear cell) | 3 | 60.8 (active) |
| USP21 (GeneID 27005) | Vehicle | OCI-P5x (serous) | 1 | 84.4 |
| USP21 (GeneID 27005) | Vehicle | OCI-P5x (serous) | 2 | 65.6 (active) |
| USP21 (GeneID 27005) | Vehicle | OCI-P5x (serous) | 3 | 98.9 |
| H2AX (GeneID 3014) | Rucaparib | OCI-C5x (clear cell) | 1 | 53.9 (active) |
| H2AX (GeneID 3014) | Rucaparib | OCI-C5x (clear cell) | 2 | 55.2 (active) |
| H2AX (GeneID 3014) | Rucaparib | OCI-C5x (clear cell) | 3 | 52.2 (active) |
| H2AX (GeneID 3014) | Rucaparib | OCI-P5x (serous) | 1 | 55.4 (active) |
| H2AX (GeneID 3014) | Rucaparib | OCI-P5x (serous) | 2 | 51.7 (active) |
| H2AX (GeneID 3014) | Rucaparib | OCI-P5x (serous) | 3 | 57.7 (active) |
| H2AX (GeneID 3014) | Vehicle | OCI-C5x (clear cell) | 1 | 63.2 (active) |
| H2AX (GeneID 3014) | Vehicle | OCI-C5x (clear cell) | 2 | 48.2 (active) |
| H2AX (GeneID 3014) | Vehicle | OCI-C5x (clear cell) | 3 | 50.9 (active) |
| H2AX (GeneID 3014) | Vehicle | OCI-P5x (serous) | 1 | 54.8 (active) |
| H2AX (GeneID 3014) | Vehicle | OCI-P5x (serous) | 2 | 54 (active) |
| H2AX (GeneID 3014) | Vehicle | OCI-P5x (serous) | 3 | 50.6 (active) |
| KIF11 (GeneID 3832) | Rucaparib | OCI-C5x (clear cell) | 1 | 33.5 (active) |
| KIF11 (GeneID 3832) | Rucaparib | OCI-C5x (clear cell) | 2 | 34.7 (active) |
| KIF11 (GeneID 3832) | Rucaparib | OCI-C5x (clear cell) | 3 | 28.1 (active) |
| KIF11 (GeneID 3832) | Rucaparib | OCI-P5x (serous) | 1 | 34.4 (active) |
| KIF11 (GeneID 3832) | Rucaparib | OCI-P5x (serous) | 2 | 31.2 (active) |
| KIF11 (GeneID 3832) | Rucaparib | OCI-P5x (serous) | 3 | 42.4 (active) |
| KIF11 (GeneID 3832) | Vehicle | OCI-C5x (clear cell) | 1 | 23.1 (active) |
| KIF11 (GeneID 3832) | Vehicle | OCI-C5x (clear cell) | 2 | 28.5 (active) |
| KIF11 (GeneID 3832) | Vehicle | OCI-C5x (clear cell) | 3 | 24.4 (active) |
| KIF11 (GeneID 3832) | Vehicle | OCI-P5x (serous) | 1 | 31.6 (active) |
| KIF11 (GeneID 3832) | Vehicle | OCI-P5x (serous) | 2 | 42.1 (active) |
| KIF11 (GeneID 3832) | Vehicle | OCI-P5x (serous) | 3 | 33.3 (active) |
